PubChem BioAssay AID2551 (National Center for Advancing Translational Sciences (NCATS), 2010)
The whole screen tested about 310,000 compounds, of which about 17,000 (5.5%) were called active. Inconclusive means that the source gave no clear call. Such entries were picked first, then a sample of the others. Calls come from the whole dose curve; as a rule, active = well fitted inhibition curve with a large enough effect; inconclusive = small, poorly fitted or top-dose-only effect, or effect the other way; inactive = no such curve, though single readings can be large or run the other way. Potencies of inconclusive entries are doubtful fits and often do not repeat.

Sequences of proteins named here, by UniProt entry; tags and fusion partners are left off. A change or cut given only in a name is not applied to a line headed by its entry.
UniProt P51450: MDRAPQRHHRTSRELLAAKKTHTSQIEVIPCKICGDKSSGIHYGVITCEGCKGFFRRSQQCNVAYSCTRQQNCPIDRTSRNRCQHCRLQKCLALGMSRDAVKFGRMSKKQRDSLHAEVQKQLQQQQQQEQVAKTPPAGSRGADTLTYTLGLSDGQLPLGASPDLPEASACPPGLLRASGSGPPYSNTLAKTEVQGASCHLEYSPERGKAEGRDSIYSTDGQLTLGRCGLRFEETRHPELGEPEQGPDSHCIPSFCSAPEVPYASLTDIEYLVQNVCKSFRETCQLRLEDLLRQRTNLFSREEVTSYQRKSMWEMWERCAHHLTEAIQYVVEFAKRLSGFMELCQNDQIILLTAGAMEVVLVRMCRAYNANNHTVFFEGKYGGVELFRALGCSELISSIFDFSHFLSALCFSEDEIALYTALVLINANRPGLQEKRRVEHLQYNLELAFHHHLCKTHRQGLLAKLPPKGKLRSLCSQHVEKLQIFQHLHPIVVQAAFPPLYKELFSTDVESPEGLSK

What follows are compounds tested against Nuclear receptor ROR-gamma (Mus musculus) (UniProt P51450) (assay: qHTS for inhibitors of ROR gamma transcriptional activity). Settings: Drosophila S2 Gal4-RORgamma UAS-luciferase reporter, 20 h; activity change, negative = inhibition: at 53.6 µM (top of the series).
How it was run: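 A Gal4/UAS one-hybrid system in insect cells: metallothionein-promoter Gal4–ROR gamma fusion plus Photinus luciferase reporter. Copper sulfate 700 uM final, 20 hr ambient incubation, luminescent detection after 10 min with reagent.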
% is set by controls: 0 for no effect and ±100 for the full control effect; potency is the fitted concentration of half-maximal effect.
Note: nearly all actives have a fitted effect of over 60% in size.

Activity change, negative = inhibition, inactive:
Cc1ccc(-c2nc(CS(=O)CC(=O)N3CCN(c4ccc(F)cc4)CC3)c(C)o2)cc1 (stereo unspecified) 26.7%
O=C(Cn1cc(S(=O)(=O)Cc2ccccc2F)c2ccccc21)N1CCOCC1 -0.413%
CCN(CC(=O)NCc1ccc(Cl)cc1)CC(=O)Nc1ccc(C(N)=O)cc1 16.3%
O=C(N/N=C/c1ccc(-c2ccc(Cl)c(C(=O)O)c2)o1)c1cc2c(ccc3ccccc32)o1 16.8%
O=C(COc1ccc2oc(-c3ccccc3)cc(=O)c2c1)NCc1ccco1 17.7%
O=Cc1c(NCCc2ccc(F)cc2)c2ccccc2[nH]c1=O 64.3%
O=C1CCN(Cc2ccccc2)CCN1[C@H](CSc1ccccc1)c1ccccc1 6.36%
CN(C)c1ccc(C(=O)c2ccccc2C(=O)O)cc1[N+](=O)[O-] -0.22%
COc1cc(COc2ccc3c(C)c(Cc4ccccc4)c(=O)oc3c2)cc(OC)c1OC 1.62%
CSc1ccccc1NC(=O)Nc1cccc(Cl)c1 0.19%
COC(=O)c1cc(NC(=O)c2cccc(C(F)(F)F)c2)c(=O)oc1C 16.1%
O=C(O)CCSCCCN1C(=O)c2cccc3cccc(c23)C1=O 7.74%
Cc1cc(C)c(NC(=S)N(CCCN2CCOCC2)Cc2cccnc2)c(C)c1 0.559%
COc1ccc(CN2CCC(Oc3ccc(C(=O)N4CCCCC4)cc3)CC2)cc1C -8.32%
CCOc1ccc(NC(c2ccccn2)c2oc(CO)cc(=O)c2O)cc1 (stereo unspecified) -39.8%
COC(=O)c1c(C)[nH]c(C=O)c1-c1ccccc1 6.25%
COc1ccccc1CN(C)C(=O)c1cc(-c2cccs2)nc2ccccc12 42.7%
CCN(CC)S(=O)(=O)c1ccc(-c2nnc(SCC(=O)c3ccc(OC)cc3)o2)cc1 5.93%
CCOC(=O)C1CCN(c2ncnc3cc(OC)c(OC)cc23)CC1 5.52%

Potency, inconclusive:
Cc1cc(C(=O)N(C)C)sc1-c1ccccc1 2.24 µM [activator, single point]
O=C1/C(=C/c2ccc(O)cc2)COc2ccccc21 35.5 µM [inhibitor, single point]
OCC1(Cc2ccc(F)cc2)CCCN(Cc2ccc(F)cc2Cl)C1 (stereo unspecified) 12.6 µM [activator, single point]
O=C(Cc1ccccc1)Nc1nnc(-c2ccco2)s1 2.24 µM [activator, partial curve, poor fit]
CCOC(=O)C1CCCN(C(=O)c2cc3nc(-c4cccc(OC)c4)cc(C(F)(F)F)n3n2)C1 (stereo unspecified) 3.55 µM [inhibitor, full curve, poor fit]
COc1ccc(OCC(O)Cn2cnc(-c3ccc(Br)cc3)c2)cc1 (stereo unspecified) 10 µM [activator, partial curve, poor fit]
O=C1ON=C(c2ccccc2)/C1=C\c1ccco1 6.31 µM [activator, single point]
Cc1csc(NC(=O)c2ccc3nc[nH]c3c2)n1 17.8 µM [inhibitor, partial curve, poor fit]
On1cnnc1-c1ccccc1 35.5 µM [inhibitor, single point]
O=c1c2c3c(sc2nc2n1CCCC2)CCCC3 5.62 µM [activator, partial curve, poor fit]
Cc1ccc(OCCOC(=O)c2c(-c3ccccc3)noc2C)cc1 35.5 µM [activator, single point]
CC1CCCCC1NC(=O)/C(C#N)=C/c1ccc(F)c(F)c1 (stereo unspecified) 25.1 µM [inhibitor, single point]
CCOc1ccc(S(=O)(=O)N(C)c2ccc(OCC(=O)Nc3ccc4[nH]c(=O)[nH]c4c3)cc2)cc1 3.16 µM [inhibitor, single point]
NS(=O)(=O)c1cccc2cccnc12 3.16 µM [inhibitor, single point]
Cc1c(C(=O)N2CCCCC2)c(S(=O)(=O)N2CCN(c3ccc(F)cc3)CC2)c(C)n1C 1.26 µM [activator, full curve, poor fit]
Cc1ccc(C(=O)c2coc3ccc(O)c(CN(C)C)c23)cc1 0.158 µM [activator, full curve, poor fit]
O=C(Nc1cccc(S(=O)(=O)N2CCOCC2)c1)c1cc2c(s1)CCC2 35.5 µM [activator, single point]
Cc1cccc(-c2nc(C#N)c(NC3CCCCC3)o2)c1 1.26 µM [activator, full curve, poor fit]
COc1ccc(CC(N)C(=O)N[C@H]2[C@@H](O)[C@H](n3cnc4c(N(C)C)ncnc43)O[C@@H]2CO)cc1 (stereo partly specified) 17.8 µM [inhibitor, single point]
OCc1cn(-c2ccccc2)nc1-c1ccc2c(c1)OCCO2 12.6 µM [activator, partial curve, poor fit]
Cc1ccc(C(=O)NCCSc2snnc2C)cc1 0.562 µM [activator, partial curve]
O=C(c1ccc(Cl)cc1)N1CCC(c2nc(-c3cccs3)no2)CC1 35.5 µM [activator, single point]
O=C(CCS(=O)(=O)c1ccccc1)N1CCN(c2ccccc2)CC1 0.0708 µM [activator, full curve, poor fit]
Nc1[nH]nc2nc(N3CCCC3)nc(-c3ccccc3)c12 22.4 µM [inhibitor, single point]
Cc1ccc(C)c(NC(=S)NNC(=O)c2sccc2C)c1 0.447 µM [inhibitor, full curve, poor fit]
O=C(Cc1ccccc1Nc1c(Cl)cccc1Cl)OCO/N=[N+](\[O-])N1CCCC1 31.6 µM [inhibitor, single point]
O=c1c2c3c(sc2nc2n1CCCC2)CCCCC3 5.01 µM [activator, full curve]
CCCCOCCCNc1ncnc2c1[nH]c1ccccc12 22.4 µM [inhibitor, single point]
O=C(/C=C/c1ccc(Cl)cc1Cl)NCCSc1ccccc1 14.1 µM [activator, single point]
FC(F)(F)c1ccccc1-c1ccc2ncnc(NCc3cccnc3)c2c1 11.2 µM [activator, partial curve]
Cc1ccnc(SC2CC(=O)N(c3ccc([N+](=O)[O-])cc3)C2=O)n1 (stereo unspecified) 17.8 µM [inhibitor, single point]
CC1Sc2ccc(S(=O)(=O)N3CCC(C(=O)Nc4cccc(Cl)c4)CC3)cc2NC1=O (stereo unspecified) 35.5 µM [inhibitor, single point]
COc1ccc(CN2CCN(Cc3c[nH]c4ccccc34)CC2CCO)cc1C (stereo unspecified) 35.5 µM [inhibitor, single point]
Cc1ccc(N(Cc2cc3ccccc3[nH]c2=O)C(=O)c2cccs2)cc1C 12.6 µM [activator, partial curve]
CCOc1cc(/C=C2\CN(C)C/C(=C\c3ccc(O)c(OCC)c3)C2=O)ccc1O 22.4 µM [inhibitor, single point]
CCN1CCN(CCNC(=O)c2ccc(/C=C3/Sc4ccccc4N(Cc4cccc(C)c4)C3=O)cc2)CC1 35.5 µM [inhibitor, single point]
Cc1ccc(O)c(Nc2ncnc3ccc([N+](=O)[O-])cc23)c1 6.31 µM [activator, partial curve]
Cc1ccc(Cl)cc1Nc1nc(-c2cccnc2)cs1 0.0045 µM [activator, full curve, poor fit]
Cc1cc(C)c(S(=O)(=O)N2CCCC(C(=O)NCc3cccnc3)C2)c(C)c1 (stereo unspecified) 35.5 µM [activator, single point]
O=C(c1cc(COc2ccc(F)cc2F)on1)N1CC[C@@H]2CCCC[C@H]2C1 35.5 µM [activator, single point]
Cc1ccc(S(=O)(=O)/N=C(/NC(=S)Nc2cccc(C)c2)c2ccccc2)cc1 35.5 µM [inhibitor, single point]
Cc1ccc(OCCOc2cccc(Br)c2)c([N+](=O)[O-])n1 20 µM [activator, single point]
CCSc1nc2sc3c(c2c2[n+]1CC(CBr)O2)CCCC3 (stereo unspecified) 35.5 µM [activator, single point]
Cc1nn(-c2ccccn2)c2c1C(c1ccsc1)C1=C(CCCC1=O)N2 (stereo unspecified) 10 µM [inhibitor, partial curve]

Fetched by compound from above:
Potency, inconclusive:
On1cnnc1-c1ccccc1 35.5 µM [inhibitor, single point]
CC1CCCCC1NC(=O)/C(C#N)=C/c1ccc(F)c(F)c1 (stereo unspecified) 25.1 µM [inhibitor, single point]

Following part.

Potency, active:
CC(C)(C)c1cc(NCc2ccccn2)n2ncc(-c3ccc(Cl)cc3)c2n1 0.562 µM
C=C1C(=O)OC2C[C@@]3(C)CCCC(C)C3=CC12 (stereo partly specified) 10 µM
Cc1cccnc1Nc1nc(-c2ccccn2)cs1 0.0224 µM
Nc1ncc(-c2ccccc2)n1CC1CCCO1 (stereo unspecified) 12.6 µM
S=C(N/N=C1\C2CN3CCN(C2)CC1(c1ccccc1)C3)Nc1ccccc1 5.01 µM
COc1ccccc1-c1cn(-c2ccccc2)c(=S)[nH]1 2.82 µM
Cc1ccnc2nc(C(=O)Nc3nnc(-c4ccccc4)o3)nn12 11.2 µM
Cc1ccc(N2C(=O)C3C4C=CC(CNC(=S)N5CCN(c6cccc(C)c6)C(C)C5)(O4)C3C2=O)cc1 (stereo unspecified) 8.91 µM

Arranged by length of the SMILES (ascending): part of the list above
Potency, active:
Cc1cccnc1Nc1nc(-c2ccccn2)cs1 0.0224 µM
C=C1C(=O)OC2C[C@@]3(C)CCCC(C)C3=CC12 (stereo partly specified) 10 µM
Cc1ccnc2nc(C(=O)Nc3nnc(-c4ccccc4)o3)nn12 11.2 µM
CC(C)(C)c1cc(NCc2ccccn2)n2ncc(-c3ccc(Cl)cc3)c2n1 0.562 µM
